This is an account of results in PubChem BioAssay AID662 (National Center for Advancing Translational Sciences (NCATS), 2007).

What is called AC50 is the concentration at which the activity in the assay is half-maximal.

The other results are listed elsewhere or left out. Further columns of the screen follow, without active or inactive calls. The list favours compounds with an active or inconclusive main result. Potencies come from curve fits of mixed quality, noted in brackets.

This assay in a line: Cell signaling CRE-BLA (Fsk stim). The conditions noted are these: CHO CRE-bla reporter (cAMP response element driving beta-lactamase), forskolin EC10, beta-lactamase ratio; measured here: 460 nm blue channel. In a few lines:
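AC50 values, positive or negative, reflect shifts in EC10 NKH 477-induced CRE-bla reporter activity in CHO cells. Incubation lasted 3 h at 37 °C before CCF4 substrate (2 h, room temperature) and ratiometric 460/530 nm reading.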
On to `COCCn1c(SCC(=O)Nc2ncc(C)s2)nc2sc3c(c2c1=O)CCC3`, for which the half-maximal activity concentration (AC50) was 10 µM [rising, partial curve]. Under `COCCNc1nc(-c2ccc(C(=O)N(C)C)cc2)nc2ccccc12` stands 10 µM [rising, partial curve]; under `COc1cc2nncc(SCc3ccc(Cl)c(Cl)c3)c2cc1OC`, 0.794 µM [rising, partial curve]; under `CCc1nnc(NC(=O)CSc2nnc(-c3cc4ccccc4cc3O)n2CCOC)s1`, 25.1 µM [falling, single point]. Under `N#Cc1ccsc1NC(=O)c1cnccn1` stands 0.501 µM [falling, full curve]. Under `Cc1cc(NS(=O)(=O)c2ccc(NC(=O)c3cnc4scc(C)n4c3=O)cc2)nc(C)n1` stands 12.6 µM [rising, single point]; under `CCN1CCN(C(=O)c2nn(-c3ccc(C)cc3)c(=O)c3c2c2ccccc2n3C)CC1`, 0.1 µM [falling, single point]; under `CSC1=Nc2sc3c(c2C2=NCCN12)CCCC3`, 10 µM [rising, partial curve]. Regarding `COc1cc(C)c(C(C)C)cc1S(=O)(=O)NCCCn1ccnc1`, the AC50 is 0.398 µM [falling, partial curve, poor fit]. As for `O=C(CSc1nc(-c2ccco2)cc(C(F)(F)F)n1)N1CCc2ccccc2C1`, the concentration at half-maximal activity (AC50) was 10 µM [rising, partial curve].

Regarding `O=C(CSc1n[nH]c(=O)n1C1CC1)Nc1cc(Cl)ccc1Oc1ccccc1`, the AC50 is 25.1 µM [falling, single point]. Under `O=c1[nH]c(SCCOc2ccccc2)nc2ccccc12` stands 20 µM [rising, single point].

For `Nc1c(C(=O)c2cccs2)oc2ccccc12`, the AC50 was 10 µM [rising, partial curve]. Regarding `CCc1nc(NC(C)C)c2oc3ccccc3c2n1`, the AC50 was 0.398 µM [rising, full curve]. Consider `O=C(CCS(=O)(=O)c1cccc2nonc12)Nc1cccc2c1CCCC2`, for which the AC50 is 0.126 µM [falling, full curve, poor fit].

On to `Nc1c(S(=O)(=O)c2cccs2)c2nc3ccccc3nc2n1Cc1cccs1`, for which the AC50 is 12.6 µM [rising, partial curve].

Turning to `Cn1c(C(=O)NCc2cccs2)cc2c(=O)n(C)c3ccccc3c21`, the AC50 was 0.398 µM [rising, full curve, poor fit]. Regarding `CCOC(=O)c1cc(-c2ccncc2)nc2c1c(C)nn2C`, the AC50 is 6.31 µM [rising, partial curve]. With `Cn1c(=O)[nH]c(=O)c2c1nc(N1CCCCCC1)n2Cc1cccc2ccccc12`, the AC50 was 12.6 µM [rising, single point]. As to `O=C(CN1CCN(Cc2ccccc2)CC1)c1ccc(Br)cc1`, the AC50 was 12.6 µM [rising, single point]. Under `CC(=O)Nc1ccc(Nc2nc(C)nc3c2oc2ccccc23)cc1` stands 3.16 µM [rising, single point]. `C=C1C[C@@]23C[C@]1(O)CC[C@@H]2[C@]12C=C[C@@H](O)[C@@](C)(C(=O)O1)[C@@H]2[C@@H]3C(=O)O`: the AC50 was 31.6 µM [falling, single point]. As to `CC(C)COC(=O)N1CC(O)CC1C(=O)O` (stereo not drawn), the AC50 is 25.1 µM [falling, single point]. Under `CC[C@H]1C2=C3C(CC[C@H]4C(OCc5ccc(F)cc5C(F)(F)F)OC[C@](C)([C@@H]34)N(C(=O)OC(C)(C)C)C2)C(COC(C)=O)C1COC(C)=O` (stereo partly drawn) stands 5.01 µM [rising, full curve, poor fit]. The result for `O=C(Cc1cc(=O)oc2cc(O)ccc12)NCC1CCC(C(=O)O)CC1` (stereo not drawn) reads 10 µM [rising, partial curve]. In the case of `CCOC(=O)CCC(=O)Nc1ccc(S(=O)(=O)N2CCCC2)cc1`, the AC50 is 25.1 µM [falling, single point].

`Cc1ccc(C(=O)OCc2nnc(-c3ccccc3)o2)o1`: the AC50 was 0.126 µM [falling, full curve, poor fit]. Turning to `COc1cc(C)c(Cl)c(C)c1S(=O)(=O)NCc1ccc2c(c1)OCO2`, the AC50 is 12.6 µM [falling, partial curve, poor fit].

Turning to `Cc1cccc(N2CCN(C(=O)C3CCCCC3)CC2)c1C`, the AC50 is 12.6 µM [falling, partial curve]. `COc1cccc(C2=CC(c3ccc(OC)c(OC)c3OC)n3nnnc3N2)c1` (stereo not drawn): the AC50 is 10 µM [rising, partial curve]. The result for `CS(=O)(=O)Nc1cccc(-c2nc(NCc3cccs3)c3ccccc3n2)c1` reads 3.16 µM [rising, partial curve]; that for `CC(=O)c1c(C)nc2ccccc2c1N`, 25.1 µM [rising, single point]; that for `Cc1ccc(NC(=O)C2CCN(S(=O)(=O)c3cnc[nH]3)CC2)nc1`, 5.01 µM [falling, single point]. Under `CCCCNC(=O)CC(NS(=O)(=O)c1ccc(C)cc1)c1ccco1` (stereo not drawn) stands 10 µM [falling, partial curve]. The result for `COC(=O)CN(C#N)c1nc(OC)nc(N(C)C)n1` reads 20 µM [rising, partial curve]; that for `CNc1ncnc2ccc(-c3cccc(OC)c3)cc12`, 5.01 µM [rising, full curve, poor fit]; that for `CC(=O)Nc1nonc1NC(=O)CSc1nc2ccccc2o1`, 2 µM [rising, partial curve]. With `O=C(OCCn1cncn1)c1cc2ccccc2oc1=O`, the AC50 was 0.251 µM [falling, full curve]. The result for `Cc1cc(C)c(/C=C2/C(=O)Nc3ccccc32)[nH]1` reads 10 µM [falling, full curve, poor fit]; that for `CC1CN(c2nn3c(=O)c4ccccc4nc3c3ccccc23)CC(C)O1` (stereo not drawn), 5.01 µM [rising, partial curve]; that for `CC(C)c1nc(SCC(=O)Nc2cccc(C(F)(F)F)c2)c2c(=O)n(C)c(=O)n(C)c2n1`, 2.51 µM [rising, full curve]. In the case of `COc1ccc(S(=O)(=O)N2CCCC(C(=O)O)C2)cc1Cl` (stereo not drawn), the AC50 is 3.98 µM [rising, single point].

For the compound `O=C(NCc1cccs1)c1ccc(N2CCCCC2)nc1`, the half-maximal activity concentration (AC50) is 25.1 µM [rising, single point].
